The values below come from paper PMC8730687.

By UniProt entry, the sequences of proteins in these tests, tags left out.
UniProt Q9FYA2: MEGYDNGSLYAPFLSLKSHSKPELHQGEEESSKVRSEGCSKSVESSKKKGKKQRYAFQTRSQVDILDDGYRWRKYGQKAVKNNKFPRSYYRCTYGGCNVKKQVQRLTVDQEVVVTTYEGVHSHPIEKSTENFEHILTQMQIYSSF

In assay [1] the target is nLUC-WRKY75 (full-length WRKY75 in pCAMBIA1300-nLUC) (Arabidopsis) (UniProt Q9FYA2). Put plainly: split reporter; LUC complementation imaging (LCI): nLUC-WRKY75 and cLUC-SIB1 or cLUC-SIB2 co-expressed in N. benthamiana leaves by Agrobacterium EHA105; imaged with a cooled CCD after infiltration.
The target in assay [2] is WRKY75, full length, fused to the pGBKT7 binding domain (BD, bait) (Arabidopsis) (UniProt Q9FYA2). Put plainly: two-hybrid; WRKY75 and derivatives in pGBKT7 (BD, bait), SIB1 or SIB2 and derivatives in pGADT7 (AD, prey); yeast Y2H Gold; growth on selective media lacking Leu, Trp, His and Ade.

These are yes or no findings as the source states them, for the method shown. For part of these data: In cells and extracts the contact can be indirect. Some results given as binding are weak or reduced against the parent protein; the word gives no strength. Where a sequence is shown, tags or fusion partners need not be part of it.

B1: cLUC-SIB1 (full-length SIB1 in pCAMBIA1300-cLUC) (protein, UniProt Q9LDH1 55-151)
chain: ASKFRELVQELTGQDAVDLQPEPIYSPSSDDHNLSPPAENLAPRVLHQEPFGERDSDCYEPLNAEDMFLPDQMSAGFSGFFSNGFYNVNDFGSIDSM
With B1, the binding entry in assay [1] was “binds”.

B2: SIGMA FACTOR BINDING PROTEIN2 (SIB2), full length, fused to the pGADT7 activation domain (AD, prey) (protein, UniProt O80669 1-141)
chain: MDQSSSTLLINQRKSSSSPTRIPPKQKRKSTTTHKPIKVRYISNPMRVETCPSKFRELVQELTGQDAADLPPSPTTFTAVDLHRPCESEMNLEPLDGEVRGEYYSPLDEEVFNAPQMSAGLSGFFSSGFYNVNALGSIGSL
As for B2, in assay [2], the binding entry is “binds”.

B3: cLUC-SIB2 (full-length SIB2 in pCAMBIA1300-cLUC) (protein, UniProt O80669 39-141)
chain: VRYISNPMRVETCPSKFRELVQELTGQDAADLPPSPTTFTAVDLHRPCESEMNLEPLDGEVRGEYYSPLDEEVFNAPQMSAGLSGFFSSGFYNVNALGSIGSL
For B3, the binding result in assay [1] is reported as “binds”.
